The record followed here is the supplement of paper PMC4604168 (melanoma cell lines).

The list shows a part of the results. Repeats are few or missing, and single values can be far off.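 Imaging used 1,536-well plates; nuclei positive for cleaved PARP by antibody were divided by total DNA-stained nuclei to yield the apoptosis fraction. Doses for screening kept most cells viable, and cell lines differ markedly in resting and induced cleaved-PARP levels.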

This test relates to COLO829. In words: cleaved PARP positive nuclei fraction relative to DMSO control; melanoma cells; higher = more apoptosis. The conditions noted are these: library dose: low library concentration; 72 h.
With `OCCn1cc(-c2cnc3nnn(Cc4ccc5ncccc5c4)c3n2)cn1` + C/C(O)=C(\C#N)C(=O)Nc1cc(Br)ccc1Br [LFM-A13] (first compound 1 µM, partner dose 2 µM), the “cleaved PARP positive nuclei fraction” value was 63.2%.
Take `C[As](C)SC[C@H](NC(=O)CC[C@H](N)C(=O)O)C(=O)NCC(=O)O` [Darinaparsin] + O=C1NC(=O)/C(=C/c2ccc(-c3ccc(F)cc3O)o2)S1 [AS252424] (first compound 0.4 µM, partner dose 1 µM): the “cleaved PARP positive nuclei fraction” value was found to be 102%.
Take `Nc1cccc2c1CN(C1CCC(=O)NC1=O)C2=O` (configuration not stated) [lenalidomide] + Cc1cc(SCc2sc(-c3ccc(C(F)(F)F)c(F)c3)nc2C)ccc1OCC(=O)O [GW0742] (first compound 1 µM, partner dose 2 µM): the “cleaved PARP positive nuclei fraction” value worked out at 66.5%.
The result for `C/C(O)=C(\C#N)C(=O)Nc1cc(Br)ccc1Br` + CCCCCCCCCCCC1=C(O)C(=O)C=C(O)C1=O [Embelin] (first compound 2 µM, partner dose 1.2 µM) reads 110%.
In the case of `Cc1cc(SCc2sc(-c3ccc(C(F)(F)F)c(F)c3)nc2C)ccc1OCC(=O)O` + Cn1cc(/C=C2\C(=O)Nc3cccnc32)c2ccccc21 [GW441756] (first compound 2 µM, partner dose 0.4 µM) it was 102%; in that of `C[As](C)SC[C@H](NC(=O)CC[C@H](N)C(=O)O)C(=O)NCC(=O)O` [Darinaparsin] + Cc1cc([N+](=O)[O-])ccc1NS(=O)(=O)c1cc(Cl)ccc1Cl [FH535] (first compound 0.4 µM, partner dose 1 µM), 54.7%.
In the case of `C=CCn1c(=O)c2cnc(Nc3ccc(N4CCN(C)CC4)cc3)nc2n1-c1cccc(C(C)(C)O)n1` + O=C(Oc1ccc([N+](=O)[O-])cc1)N1CCC(C(O)(c2ccc3c(c2)OCO3)c2ccc3c(c2)OCO3)CC1 [JZL184] (first compound 0.02 µM, partner dose 1 µM) it was 44.8%; in that of `C/C(O)=C(\C#N)C(=O)Nc1cc(Br)ccc1Br` + c1cc(-c2cnn3cc(-c4ccc(OCCN5CCCCC5)cc4)cnc23)ccn1 [Dorsomorphin] (first compound 2 µM, partner dose 0.4 µM), 95.7%; in that of `C/C(O)=C(\C#N)C(=O)Nc1cc(Br)ccc1Br` + O=C(Oc1ccc([N+](=O)[O-])cc1)N1CCC(C(O)(c2ccc3c(c2)OCO3)c2ccc3c(c2)OCO3)CC1 [JZL184] (first compound 2 µM, partner dose 1 µM), 67.1%.
As for `Cc1cc(SCc2sc(-c3ccc(C(F)(F)F)c(F)c3)nc2C)ccc1OCC(=O)O` + O=C1NC(=O)/C(=C/c2ccc(-c3ccc(F)cc3O)o2)S1 [AS252424] (first compound 2 µM, partner dose 1 µM), the “cleaved PARP positive nuclei fraction” value worked out at 114%.
In the case of `CCc1ccc(CCOc2ccc(CC3SC(=O)NC3=O)cc2)nc1` (configuration not stated) [pioglitazone] + Cc1cc(SCc2sc(-c3ccc(C(F)(F)F)c(F)c3)nc2C)ccc1OCC(=O)O [GW0742] (first compound 2 µM, partner dose 2 µM) it was 64%; in that of `COc1ccc2c(c1)CCC1C2CCC2(C)C(NCCCCCCN3C(=O)C=CC3=O)CCC12` (configuration not stated) + O=C(Oc1ccc([N+](=O)[O-])cc1)N1CCC(C(O)(c2ccc3c(c2)OCO3)c2ccc3c(c2)OCO3)CC1 [JZL184] (first compound 0.4 µM, partner dose 1 µM), 74.7%; in that of `Cc1cc(SCc2sc(-c3ccc(C(F)(F)F)c(F)c3)nc2C)ccc1OCC(=O)O` + O=C(Oc1ccc([N+](=O)[O-])cc1)N1CCC(C(O)(c2ccc3c(c2)OCO3)c2ccc3c(c2)OCO3)CC1 [JZL184] (first compound 2 µM, partner dose 1 µM), 139%.
The result for `C/C(O)=C(\C#N)C(=O)Nc1cc(Br)ccc1Br` + Cc1cc([N+](=O)[O-])ccc1NS(=O)(=O)c1cc(Cl)ccc1Cl [FH535] (first compound 2 µM, partner dose 1 µM) reads 139%; that for `NCC(=O)Nc1ccc(-n2nc(C(F)(F)F)cc2-c2ccc3c(ccc4ccccc43)c2)cc1` + O=C(Oc1ccc([N+](=O)[O-])cc1)N1CCC(C(O)(c2ccc3c(c2)OCO3)c2ccc3c(c2)OCO3)CC1 [JZL184] (first compound 1 µM, partner dose 1 µM), 187%; that for `O=C(O)C(=O)Nc1sc2c(c1C(=O)O)CCNC2` + C/C(O)=C(\C#N)C(=O)Nc1cc(Br)ccc1Br [LFM-A13] (first compound 1.66667 µM, partner dose 2 µM), 104%.
As to `COc1ccc2c(c1)CCC1C2CCC2(C)C(NCCCCCCN3C(=O)C=CC3=O)CCC12` (configuration not stated) + Cc1cc(SCc2sc(-c3ccc(C(F)(F)F)c(F)c3)nc2C)ccc1OCC(=O)O [GW0742] (first compound 0.4 µM, partner dose 2 µM), the “cleaved PARP positive nuclei fraction” value is 58.1%.
In the case of `Cc1ccc(NC(=O)c2cccc(N(C)C)c2)cc1NC(=O)c1ccc(O)cc1` + C/C(O)=C(\C#N)C(=O)Nc1cc(Br)ccc1Br [LFM-A13] (first compound 2 µM, partner dose 2 µM) it was 69.6%; in that of `O=C(Oc1ccc([N+](=O)[O-])cc1)N1CCC(C(O)(c2ccc3c(c2)OCO3)c2ccc3c(c2)OCO3)CC1` + O=c1cc(-c2cccc3c2Sc2ccccc2S3)oc(N2CCOCC2)c1 [KU55933] (first compound 1 µM, partner dose 1 µM), 59.7%; in that of `C/C(O)=C(\C#N)C(=O)Nc1cc(Br)ccc1Br` + O=c1cc(-c2cccc3c2Sc2ccccc2S3)oc(N2CCOCC2)c1 [KU55933] (first compound 2 µM, partner dose 1 µM), 33.5%.
With `C=CCn1c(=O)c2cnc(Nc3ccc(N4CCN(C)CC4)cc3)nc2n1-c1cccc(C(C)(C)O)n1` + Cc1cc(SCc2sc(-c3ccc(C(F)(F)F)c(F)c3)nc2C)ccc1OCC(=O)O [GW0742] (first compound 0.02 µM, partner dose 2 µM), the “cleaved PARP positive nuclei fraction” value was found to be 181%.
With `C[C@]1(c2nc3c(C(N)=O)cccc3[nH]2)CCCN1` [Veliparib] + Cc1cc(SCc2sc(-c3ccc(C(F)(F)F)c(F)c3)nc2C)ccc1OCC(=O)O [GW0742] (first compound 1.4 µM, partner dose 2 µM), the “cleaved PARP positive nuclei fraction” value came out at 169%.
As for `CCN(CC)CCCCNc1ncc2cc(-c3cc(OC)cc(OC)c3)c(NC(=O)NC(C)(C)C)nc2n1` + Cc1cc(SCc2sc(-c3ccc(C(F)(F)F)c(F)c3)nc2C)ccc1OCC(=O)O [GW0742] (first compound 0.1 µM, partner dose 2 µM), the “cleaved PARP positive nuclei fraction” value was determined as 122%.
On to `O=C(O)c1ccc(-c2c[nH]c3ncc(-c4ccccc4)cc23)cc1C1CCCC1` + Cc1cc(SCc2sc(-c3ccc(C(F)(F)F)c(F)c3)nc2C)ccc1OCC(=O)O [GW0742] (first compound 0.16 µM, partner dose 2 µM), for which the “cleaved PARP positive nuclei fraction” value is 170%.
In the case of `NC(=O)Nc1cc(-c2cccc(F)c2)sc1C(=O)N[C@H]1CCCNC1` + O=C(Oc1ccc([N+](=O)[O-])cc1)N1CCC(C(O)(c2ccc3c(c2)OCO3)c2ccc3c(c2)OCO3)CC1 [JZL184] (first compound 0.02 µM, partner dose 1 µM) it was 109%.
Consider `O=C(O)C(=O)Nc1sc2c(c1C(=O)O)CCNC2` + O=C(Oc1ccc([N+](=O)[O-])cc1)N1CCC(C(O)(c2ccc3c(c2)OCO3)c2ccc3c(c2)OCO3)CC1 [JZL184] (first compound 1.66667 µM, partner dose 1 µM), for which the “cleaved PARP positive nuclei fraction” value was 79.8%.
As to `COc1ccc(-c2ccc3c(N4CCOCC4)nc(N4C[C@@H](C)O[C@@H](C)C4)nc3n2)cc1CO` + Cc1cc(SCc2sc(-c3ccc(C(F)(F)F)c(F)c3)nc2C)ccc1OCC(=O)O [GW0742] (first compound 0.02 µM, partner dose 2 µM), the “cleaved PARP positive nuclei fraction” value stood at 100%.
In the case of `O=C(CCCCCCC(=O)Nc1ccccc1)NO` [vorinostat] + Cc1cc(SCc2sc(-c3ccc(C(F)(F)F)c(F)c3)nc2C)ccc1OCC(=O)O [GW0742] (first compound 0.08 µM, partner dose 2 µM) it was 73.1%; in that of `COC(=O)c1sccc1S(=O)(=O)Nc1ccc(Nc2ccccc2)cc1OC` + O=C(Oc1ccc([N+](=O)[O-])cc1)N1CCC(C(O)(c2ccc3c(c2)OCO3)c2ccc3c(c2)OCO3)CC1 [JZL184] (first compound 1 µM, partner dose 1 µM), 70.5%.
The result for `Nc1cccc2c1CN(C1CCC(=O)NC1=O)C2=O` (configuration not stated) [lenalidomide] + O=C(Oc1ccc([N+](=O)[O-])cc1)N1CCC(C(O)(c2ccc3c(c2)OCO3)c2ccc3c(c2)OCO3)CC1 [JZL184] (first compound 1 µM, partner dose 1 µM) reads 119%; that for `Cn1cncc1[C@@](N)(c1ccc(Cl)cc1)c1ccc2c(c1)c(-c1cccc(Cl)c1)cc(=O)n2C` [tipifarnib] + C/C(O)=C(\C#N)C(=O)Nc1cc(Br)ccc1Br [LFM-A13] (first compound 0.01 µM, partner dose 2 µM), 201%; that for `COc1cc(Nc2ncc(F)c(Nc3ccc4c(n3)NC(=O)C(C)(C)O4)n2)cc(OC)c1OC` [Tamatinib] + C/C(O)=C(\C#N)C(=O)Nc1cc(Br)ccc1Br [LFM-A13] (first compound 0.4 µM, partner dose 2 µM), 123%.
